The values that follow come from publication PMC3660353.

Results are given in words; binding and its absence hold for the method and conditions named. Some binding calls cover weakened binding; strength is not graded here.

Settings in all cases: remark: other sources report otherwise
Assay [1] deals with T1, endogenous claudin-1 in Huh-7.5 hepatoma cells (human (endogenous in Huh-7.5)), O95832.
T1 chain: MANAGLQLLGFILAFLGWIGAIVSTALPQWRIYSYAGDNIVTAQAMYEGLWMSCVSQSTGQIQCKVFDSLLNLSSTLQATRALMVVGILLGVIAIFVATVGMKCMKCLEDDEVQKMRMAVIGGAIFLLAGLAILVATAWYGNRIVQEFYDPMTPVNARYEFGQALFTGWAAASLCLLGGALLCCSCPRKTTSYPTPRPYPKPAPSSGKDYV
Description: non-reducing SDS-PAGE with immunoblot; Huh-7.5 cell lysate (PBS, 1% Triton-X100, 0.1% sodium deoxycholate, 0.1% SDS), 5 µg protein per well, blot with anti-claudin-1 (MH25). For orientation: Immunoblotting shows a protein as a band on a membrane.

For assay [2], the target named is T2, recombinant, full-length human claudin-1 (human), O95832.
T2 chain: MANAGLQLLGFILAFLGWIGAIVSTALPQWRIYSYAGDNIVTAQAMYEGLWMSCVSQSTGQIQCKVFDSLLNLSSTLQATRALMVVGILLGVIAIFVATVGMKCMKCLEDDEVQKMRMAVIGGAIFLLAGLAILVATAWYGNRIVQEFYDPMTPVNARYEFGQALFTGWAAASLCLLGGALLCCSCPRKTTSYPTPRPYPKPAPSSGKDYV
Description: SDS-PAGE with immunoblot; foscholine-10 extracted claudin-1, stained with an anti-hexahistidine tag antibody.

The target in assay [3] is T2, recombinant, full-length human …. Description: AUC; claudin-1 in profoldin-8 micelles; sedimentation velocity, continuous c(s) distribution model (SEDFIT); both purified.
Assay [4] shares this target. Description: SDS-PAGE (silver stain); claudin-1 solubilized in profoldin-8 and eluted from a nickel affinity column; both purified.

B1: endogenous claudin-1 in Huh-7.5 hepatoma cells, O95832 1-211 (protein)
chain: MANAGLQLLGFILAFLGWIGAIVSTALPQWRIYSYAGDNIVTAQAMYEGLWMSCVSQSTGQIQCKVFDSLLNLSSTLQATRALMVVGILLGVIAIFVATVGMKCMKCLEDDEVQKMRMAVIGGAIFLLAGLAILVATAWYGNRIVQEFYDPMTPVNARYEFGQALFTGWAAASLCLLGGALLCCSCPRKTTSYPTPRPYPKPAPSSGKDYV
Consider B1, for which the binding entry in assay [1] is recorded as “binds”.

B2: recombinant, full-length human claudin-1, O95832 1-211 (natural protein)
chain: MANAGLQLLGFILAFLGWIGAIVSTALPQWRIYSYAGDNIVTAQAMYEGLWMSCVSQSTGQIQCKVFDSLLNLSSTLQATRALMVVGILLGVIAIFVATVGMKCMKCLEDDEVQKMRMAVIGGAIFLLAGLAILVATAWYGNRIVQEFYDPMTPVNARYEFGQALFTGWAAASLCLLGGALLCCSCPRKTTSYPTPRPYPKPAPSSGKDYV
Regarding B2, the binding result in assay [2], in assay [3] and in assay [4] was “binds” each time.
